Test results: the supplement of paper PMC10849652
This is one part of the list.

Protein sequences, listed by entry. Tags and fused reporters are not part of them. Lines headed by an entry give the natural chain unless they say otherwise; changes in a name come on top.
UniProt P49189: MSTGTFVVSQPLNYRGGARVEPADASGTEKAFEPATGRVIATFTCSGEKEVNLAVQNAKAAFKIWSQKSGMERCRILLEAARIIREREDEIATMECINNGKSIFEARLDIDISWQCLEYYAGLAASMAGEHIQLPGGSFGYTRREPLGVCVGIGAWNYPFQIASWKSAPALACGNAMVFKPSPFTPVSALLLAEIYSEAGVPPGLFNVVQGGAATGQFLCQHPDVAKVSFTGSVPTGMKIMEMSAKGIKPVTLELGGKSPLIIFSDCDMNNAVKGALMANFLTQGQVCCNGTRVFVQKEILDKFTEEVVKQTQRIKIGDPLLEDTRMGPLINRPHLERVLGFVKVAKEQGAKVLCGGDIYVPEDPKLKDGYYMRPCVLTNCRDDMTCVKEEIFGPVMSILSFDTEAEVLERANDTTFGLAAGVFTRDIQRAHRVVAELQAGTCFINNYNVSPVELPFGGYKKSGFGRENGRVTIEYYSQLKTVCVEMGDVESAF
UniProt Q2TAA5: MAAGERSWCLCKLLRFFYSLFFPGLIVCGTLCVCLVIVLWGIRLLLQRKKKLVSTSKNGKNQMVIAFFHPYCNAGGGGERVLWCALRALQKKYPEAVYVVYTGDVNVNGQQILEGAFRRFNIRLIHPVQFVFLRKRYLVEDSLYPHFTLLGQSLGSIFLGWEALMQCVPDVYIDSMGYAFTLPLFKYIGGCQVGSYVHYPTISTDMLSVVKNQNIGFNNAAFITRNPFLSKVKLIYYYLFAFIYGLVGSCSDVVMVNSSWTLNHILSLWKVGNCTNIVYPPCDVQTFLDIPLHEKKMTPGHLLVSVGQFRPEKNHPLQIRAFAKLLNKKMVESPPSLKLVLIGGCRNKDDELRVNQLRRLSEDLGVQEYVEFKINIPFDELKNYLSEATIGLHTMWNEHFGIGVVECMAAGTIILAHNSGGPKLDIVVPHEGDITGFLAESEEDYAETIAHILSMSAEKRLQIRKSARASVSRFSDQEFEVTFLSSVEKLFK
UniProt P20933: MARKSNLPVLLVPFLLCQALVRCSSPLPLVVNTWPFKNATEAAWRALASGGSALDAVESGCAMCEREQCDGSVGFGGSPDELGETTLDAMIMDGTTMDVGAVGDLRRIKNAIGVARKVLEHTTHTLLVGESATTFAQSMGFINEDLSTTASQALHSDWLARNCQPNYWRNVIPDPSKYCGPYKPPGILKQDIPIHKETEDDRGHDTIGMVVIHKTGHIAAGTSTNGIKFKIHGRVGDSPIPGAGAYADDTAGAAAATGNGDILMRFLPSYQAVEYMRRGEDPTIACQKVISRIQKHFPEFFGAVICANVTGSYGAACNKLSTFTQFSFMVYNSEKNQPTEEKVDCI
UniProt Q9NYG5, whole entry, looked up: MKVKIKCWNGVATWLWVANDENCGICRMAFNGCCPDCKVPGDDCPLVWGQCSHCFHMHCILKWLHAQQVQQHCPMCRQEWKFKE
UniProt Q9UHX3: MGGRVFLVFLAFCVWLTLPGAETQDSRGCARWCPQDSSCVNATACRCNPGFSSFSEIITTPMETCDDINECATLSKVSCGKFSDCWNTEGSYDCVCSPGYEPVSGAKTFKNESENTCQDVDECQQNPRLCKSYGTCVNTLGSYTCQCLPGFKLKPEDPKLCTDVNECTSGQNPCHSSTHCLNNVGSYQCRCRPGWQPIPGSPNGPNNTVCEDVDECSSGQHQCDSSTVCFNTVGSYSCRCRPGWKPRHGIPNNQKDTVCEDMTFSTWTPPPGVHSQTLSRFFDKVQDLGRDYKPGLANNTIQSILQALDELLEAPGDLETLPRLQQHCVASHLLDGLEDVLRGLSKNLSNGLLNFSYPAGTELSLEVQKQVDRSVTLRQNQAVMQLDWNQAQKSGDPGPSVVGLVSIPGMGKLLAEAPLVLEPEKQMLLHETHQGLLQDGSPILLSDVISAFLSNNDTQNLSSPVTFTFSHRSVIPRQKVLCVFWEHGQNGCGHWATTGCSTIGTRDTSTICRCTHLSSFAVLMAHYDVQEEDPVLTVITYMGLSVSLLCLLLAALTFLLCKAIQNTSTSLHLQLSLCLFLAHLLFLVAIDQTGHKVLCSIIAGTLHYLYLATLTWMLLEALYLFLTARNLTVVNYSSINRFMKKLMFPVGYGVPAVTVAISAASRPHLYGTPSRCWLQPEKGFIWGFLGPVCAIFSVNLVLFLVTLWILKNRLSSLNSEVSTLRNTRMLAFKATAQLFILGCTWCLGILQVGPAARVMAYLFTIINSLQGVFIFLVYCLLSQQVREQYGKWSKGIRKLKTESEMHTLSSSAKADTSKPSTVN
UniProt O60266: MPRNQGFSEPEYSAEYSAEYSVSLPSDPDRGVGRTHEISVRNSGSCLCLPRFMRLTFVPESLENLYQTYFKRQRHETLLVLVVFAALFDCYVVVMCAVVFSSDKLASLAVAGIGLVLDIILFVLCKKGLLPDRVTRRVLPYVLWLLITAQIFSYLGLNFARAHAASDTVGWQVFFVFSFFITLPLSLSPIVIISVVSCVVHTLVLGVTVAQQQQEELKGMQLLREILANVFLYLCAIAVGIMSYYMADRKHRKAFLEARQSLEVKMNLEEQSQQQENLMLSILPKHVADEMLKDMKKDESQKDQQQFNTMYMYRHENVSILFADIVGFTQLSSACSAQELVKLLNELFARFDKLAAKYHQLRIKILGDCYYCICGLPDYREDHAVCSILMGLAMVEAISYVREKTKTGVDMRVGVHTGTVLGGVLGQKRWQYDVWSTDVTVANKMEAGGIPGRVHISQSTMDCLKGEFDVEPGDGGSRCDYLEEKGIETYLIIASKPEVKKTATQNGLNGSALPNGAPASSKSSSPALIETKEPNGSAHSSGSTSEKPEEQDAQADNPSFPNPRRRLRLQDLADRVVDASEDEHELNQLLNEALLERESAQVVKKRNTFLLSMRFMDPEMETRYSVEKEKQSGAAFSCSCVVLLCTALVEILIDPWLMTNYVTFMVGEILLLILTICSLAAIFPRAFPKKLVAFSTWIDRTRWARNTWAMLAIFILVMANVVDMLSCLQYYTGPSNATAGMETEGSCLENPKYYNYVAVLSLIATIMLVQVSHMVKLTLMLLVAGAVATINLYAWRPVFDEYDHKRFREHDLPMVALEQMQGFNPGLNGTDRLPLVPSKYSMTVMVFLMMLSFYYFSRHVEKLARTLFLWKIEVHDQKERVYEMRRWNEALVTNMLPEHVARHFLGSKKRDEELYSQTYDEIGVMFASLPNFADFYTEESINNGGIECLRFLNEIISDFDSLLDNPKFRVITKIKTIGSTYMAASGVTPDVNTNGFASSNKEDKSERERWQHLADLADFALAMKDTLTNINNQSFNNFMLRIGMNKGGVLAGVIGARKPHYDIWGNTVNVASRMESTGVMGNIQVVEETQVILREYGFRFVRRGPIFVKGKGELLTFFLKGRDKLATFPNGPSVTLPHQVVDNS
UniProt Q9Y4X0: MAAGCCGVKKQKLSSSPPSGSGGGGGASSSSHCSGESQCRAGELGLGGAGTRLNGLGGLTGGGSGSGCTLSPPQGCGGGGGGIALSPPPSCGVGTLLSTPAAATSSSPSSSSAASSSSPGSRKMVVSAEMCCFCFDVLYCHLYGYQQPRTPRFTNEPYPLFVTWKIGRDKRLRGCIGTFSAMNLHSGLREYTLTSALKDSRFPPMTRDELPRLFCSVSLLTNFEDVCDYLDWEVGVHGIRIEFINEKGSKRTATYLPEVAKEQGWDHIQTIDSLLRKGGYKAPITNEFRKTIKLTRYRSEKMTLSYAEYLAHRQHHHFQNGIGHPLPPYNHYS
UniProt P54922: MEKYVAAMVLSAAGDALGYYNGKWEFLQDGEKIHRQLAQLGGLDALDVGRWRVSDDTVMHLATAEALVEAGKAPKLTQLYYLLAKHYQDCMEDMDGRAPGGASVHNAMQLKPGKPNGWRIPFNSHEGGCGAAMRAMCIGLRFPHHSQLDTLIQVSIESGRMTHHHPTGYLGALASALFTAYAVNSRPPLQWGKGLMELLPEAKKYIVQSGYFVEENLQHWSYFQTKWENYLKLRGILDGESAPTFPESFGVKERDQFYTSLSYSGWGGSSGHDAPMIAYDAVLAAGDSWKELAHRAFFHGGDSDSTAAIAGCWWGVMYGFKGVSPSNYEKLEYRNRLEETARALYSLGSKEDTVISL
UniProt P13196: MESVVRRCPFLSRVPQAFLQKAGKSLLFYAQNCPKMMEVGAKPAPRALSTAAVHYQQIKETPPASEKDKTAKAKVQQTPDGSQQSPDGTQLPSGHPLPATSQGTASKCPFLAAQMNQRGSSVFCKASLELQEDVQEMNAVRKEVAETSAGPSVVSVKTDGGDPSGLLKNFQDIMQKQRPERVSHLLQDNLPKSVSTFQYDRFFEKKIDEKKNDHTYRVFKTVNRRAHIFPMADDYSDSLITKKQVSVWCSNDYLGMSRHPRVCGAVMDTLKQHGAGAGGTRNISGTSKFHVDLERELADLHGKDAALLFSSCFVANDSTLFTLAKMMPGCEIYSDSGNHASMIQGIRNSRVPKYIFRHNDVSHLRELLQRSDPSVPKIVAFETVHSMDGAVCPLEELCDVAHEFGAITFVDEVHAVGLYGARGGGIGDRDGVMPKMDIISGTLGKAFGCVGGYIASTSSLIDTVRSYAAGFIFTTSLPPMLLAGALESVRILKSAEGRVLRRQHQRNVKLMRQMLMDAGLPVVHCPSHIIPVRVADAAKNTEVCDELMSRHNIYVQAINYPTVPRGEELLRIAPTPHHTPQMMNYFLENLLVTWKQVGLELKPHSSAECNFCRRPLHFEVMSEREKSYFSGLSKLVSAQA
UniProt Q3LIE5: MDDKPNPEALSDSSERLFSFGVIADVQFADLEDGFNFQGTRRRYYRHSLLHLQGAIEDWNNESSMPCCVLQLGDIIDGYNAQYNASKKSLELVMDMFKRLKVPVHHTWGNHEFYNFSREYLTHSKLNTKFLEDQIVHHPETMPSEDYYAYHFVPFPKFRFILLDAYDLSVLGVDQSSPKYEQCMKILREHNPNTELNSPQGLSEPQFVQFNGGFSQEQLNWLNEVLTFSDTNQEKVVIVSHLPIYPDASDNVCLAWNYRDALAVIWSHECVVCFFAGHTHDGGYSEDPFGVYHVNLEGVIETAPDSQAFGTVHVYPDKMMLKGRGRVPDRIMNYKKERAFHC
UniProt P02760: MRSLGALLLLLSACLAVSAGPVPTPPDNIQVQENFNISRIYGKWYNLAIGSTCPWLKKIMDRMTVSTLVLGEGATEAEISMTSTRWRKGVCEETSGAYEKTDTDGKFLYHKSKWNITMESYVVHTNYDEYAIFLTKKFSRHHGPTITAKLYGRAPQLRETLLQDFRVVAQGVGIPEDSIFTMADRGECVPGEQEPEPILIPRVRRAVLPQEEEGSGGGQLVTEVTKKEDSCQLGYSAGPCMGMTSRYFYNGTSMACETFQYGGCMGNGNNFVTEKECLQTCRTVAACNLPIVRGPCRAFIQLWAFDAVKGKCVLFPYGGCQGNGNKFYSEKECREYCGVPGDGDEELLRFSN
UniProt P31749: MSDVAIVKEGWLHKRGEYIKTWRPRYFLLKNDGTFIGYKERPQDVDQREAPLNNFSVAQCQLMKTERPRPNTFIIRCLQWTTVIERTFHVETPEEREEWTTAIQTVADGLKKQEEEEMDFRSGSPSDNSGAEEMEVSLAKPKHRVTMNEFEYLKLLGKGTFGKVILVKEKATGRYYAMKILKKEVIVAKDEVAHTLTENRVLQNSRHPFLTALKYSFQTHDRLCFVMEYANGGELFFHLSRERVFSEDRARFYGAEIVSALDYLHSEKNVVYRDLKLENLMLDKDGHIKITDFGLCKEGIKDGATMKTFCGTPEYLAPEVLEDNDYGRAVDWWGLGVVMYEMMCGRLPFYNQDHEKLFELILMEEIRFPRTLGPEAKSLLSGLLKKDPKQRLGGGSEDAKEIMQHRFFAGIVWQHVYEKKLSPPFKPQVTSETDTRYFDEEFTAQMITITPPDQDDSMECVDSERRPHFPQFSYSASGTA
UniProt Q6ZN18: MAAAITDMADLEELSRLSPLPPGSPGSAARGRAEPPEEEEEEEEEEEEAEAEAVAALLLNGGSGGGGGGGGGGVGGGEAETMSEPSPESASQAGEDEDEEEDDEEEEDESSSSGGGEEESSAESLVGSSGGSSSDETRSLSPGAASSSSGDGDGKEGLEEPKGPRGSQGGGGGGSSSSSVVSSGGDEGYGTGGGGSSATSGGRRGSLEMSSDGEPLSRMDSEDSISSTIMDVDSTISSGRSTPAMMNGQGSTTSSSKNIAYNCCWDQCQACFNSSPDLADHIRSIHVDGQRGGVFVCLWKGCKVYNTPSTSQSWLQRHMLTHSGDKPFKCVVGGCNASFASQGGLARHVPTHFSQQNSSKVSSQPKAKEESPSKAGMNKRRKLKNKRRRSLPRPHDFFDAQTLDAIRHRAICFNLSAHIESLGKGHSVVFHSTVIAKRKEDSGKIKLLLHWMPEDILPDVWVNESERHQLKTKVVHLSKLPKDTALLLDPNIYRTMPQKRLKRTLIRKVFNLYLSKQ

Experiments:
Assay in all cases: log2 fold change, soluble protein after heating vs DMSO (PISA); higher = thermal stabilisation; K562 cells, 10 uM, 30 min; active = over 0.2 and 3.5 SD of the protein, either way, in both replicates (recomputed)
erlotinib = compound: C#Cc1cccc(Nc2ncnc3cc(OCCOC)c(OCCOC)cc23)c1 [erlotinib]
Procedure, shortened: (§1)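 Soluble protein was quantified by TMTpro 16plex LC-MS/MS after channel sums were equalised. It was obtained as the supernatant after 21,000xg for 90 min from pooled aliquots of K562 cells (2×10^6 cells/mL, 10 μM compound, 30 min) heated for 3 min across 48°C-58°C and extracted in PBS with 0.5% NP-40 at 4°C. Thermal stability values are relative to control samples and come from duplicates. They are given as log2 fold changes.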

[1] = compound: C/C(=N\NC(=O)C1=CC(=CC=C1)S(=O)(=O)N2CCOCC2)/C3=C(C=CC(=C3)Cl)O
Procedure, shortened: as §1

[2] = compound: C1=CC(=C(C=C1Cl)C2=NC3=NC=CN=C3C(=N2)NC4=CC=NC=C4)F
Procedure, shortened: as §1

[3] = compound: C1=CC(=CC=C1C2=NC3=C(N2)C=C(C=C3)C(=O)N)OC4=CC=C(C=C4)Cl
Procedure, shortened: as §1

[4] = compound: C1=CC2=C(C=CC(=C2)/C=C\3/C(=O)NC(=NCC4=CC=CS4)S3)N=C1
Procedure, shortened: as §1

[5] = compound: C1=CC2=NC=CN=C2C=C1/C=C/3\C(=O)NC(=O)S3
Procedure, shortened: as §1

[6] = compound: C1=CC=C(C=C1)C2=NC(=C(N2)C3=CC=NC=C3)C4=CC(=C(C=C4)Cl)O
Procedure, shortened: as §1

[7] = compound: C1=CC=C2C(=C1)C3=NNC4=CC=CC(=C43)C2=O
Procedure, shortened: as §1

[8] = compound: C1CCN(C1)C(=O)NC2=CC=CC(=C2)NC3=NC=C(C(=N3)NCCC4=CN=CN4)Br
Procedure, shortened: as §1

[9] = compound: C1CN(CCC1(CC2=CC=C(C=C2)Cl)N)C3=NC=NC4=C3C=CN4
Procedure, shortened: as §1

Measured: log2 fold change

AFDN isoform 5 (UniProt P55196)
inactive: erlotinib -0.005 | [1] 0.101 | [2] 0.021 | [3] 0.01 | [4] -0.02 | [5] 0 | [6] 0.012 | [7] -0.005 | [8] -0.049 | [9] 0.038

ALDH9A1 isoform 3 (UniProt P49189)
inactive: erlotinib -0.025 | [1] 0.016 | [2] 0.043 | [3] 0.027 | [4] -0.004 | [5] 0.003 | [6] 0.037 | [7] -0.007 | [8] -0.018 | [9] 0.051

ALDH18A1 (UniProt P54886)
inactive: erlotinib 0.016 | [1] 0.092 | [2] 0.089 | [3] -0.084 | [4] -0.007 | [5] -0.204 | [6] -0.093 | [7] -0.091 | [8] -0.015 | [9] -0.057

AHSA1 (UniProt O95433)
inactive: erlotinib 0.007 | [1] 0.011 | [2] 0.081 | [3] -0.015 | [4] 0.012 | [5] 0.037 | [6] 0.013 | [7] 0.039 | [8] -0.006 | [9] 0.023

ADK (UniProt P55263)
inactive: erlotinib 0.293 | [1] -0.034 | [2] 0.06 | [3] -0.062 | [4] 0.079 | [5] 0.005 | [6] 0.035 | [7] 0.042 | [8] -0.032 | [9] 0.085

Reprinted at random: two records from the list
ALDH9A1 isoform 3 (UniProt P49189)
inactive: erlotinib -0.025 | [1] 0.016 | [2] 0.043 | [3] 0.027 | [4] -0.004 | [5] 0.003 | [6] 0.037 | [7] -0.007 | [8] -0.018 | [9] 0.051

ADK (UniProt P55263)
inactive: erlotinib 0.293 | [1] -0.034 | [2] 0.06 | [3] -0.062 | [4] 0.079 | [5] 0.005 | [6] 0.035 | [7] 0.042 | [8] -0.032 | [9] 0.085

The listing continues.

ALG11 (UniProt Q2TAA5)
inactive: erlotinib -0.015 | [1] 0.042 | [2] 0.075 | [3] 0.013 | [4] 0.074 | [5] 0.054 | [6] 0.009 | [7] -0.048 | [8] -0.045 | [9] -0.014

ALDH6A1 (UniProt Q02252)
inactive: erlotinib 0.067 | [1] -0.02 | [2] 0.061 | [3] -0.144 | [4] 0.074 | [5] -0.043 | [6] 0.038 | [7] -0.038 | [8] -0.03 | [9] 0.043

AFG1L (UniProt Q8WV93)
inactive: erlotinib 0.053 | [1] 0 | [2] 0.076 | [3] -0.083 | [4] 0.065 | [5] 0.041 | [6] -0.204 | [7] -0.042 | [8] 0.058 | [9] -0.004

AGA (UniProt P20933)
inactive: erlotinib -0.04 | [3] 0.1 | [5] 0.028

ALG6 (UniProt Q9Y672)
inactive: erlotinib -0.006 | [1] 0.004 | [2] -0.011 | [3] 0.06 | [4] 0.07 | [5] 0.016 | [7] -0.07 | [8] -0.052 | [9] 0.175

ALS2 (UniProt Q96Q42)
inactive: erlotinib 0.02 | [2] 0.05 | [3] -0.162 | [6] -0.206 | [8] 0.021 | [9] 0.007

ANAPC11 (UniProt Q9NYG5)
inactive: erlotinib -0.066 | [3] 0.047 | [5] -0.053

AGGF1 (UniProt Q8N302)
inactive: erlotinib 0.33 | [3] -0.196 | [5] -0.066

ADGRE2 (UniProt Q9UHX3)
inactive: erlotinib -0.027 | [1] 0.014 | [2] 0.017 | [3] 0.068 | [4] -0.115 | [5] 0.039 | [6] 0.203 | [7] -0.034 | [8] 0.003 | [9] 0.068

ADCY3 (UniProt O60266)
inactive: erlotinib 0.13 | [1] 0.126 | [3] 0.052 | [4] 0.244 | [6] -0.037 | [7] 0.058 | [8] -0.018 | [9] 0.119

AMN1 (UniProt Q8IY45)
inactive: erlotinib 0.107 | [1] -0.006 | [2] -0.029 | [3] -0.252 | [4] 0.044 | [5] 0.072 | [7] 0.094 | [8] 0.156 | [9] -0.098

AMMECR1 (UniProt Q9Y4X0)
inactive: erlotinib -0.051 | [1] -0.144 | [2] -0.006 | [3] 0.146 | [4] -0.021 | [6] 0.324 | [7] 0.015

AKIRIN2 (UniProt Q53H80)
inactive: erlotinib -0.048 | [1] 0.2 | [2] -0.362 | [3] 0.017 | [4] 0.133 | [6] 0.017 | [7] -0.018 | [8] -0.213 | [9] -0.141

AMDHD2 isoform 3 (UniProt Q9Y303)
inactive: erlotinib 0.063 | [1] 0.008 | [2] -0.023 | [3] 0.011 | [4] 0.094 | [5] 0.051 | [6] 0.018 | [7] -0.008 | [8] -0.056 | [9] 0.054

ADCK5 (UniProt Q3MIX3)
inactive: erlotinib -0.122 | [2] 0.047 | [3] 0.037 | [6] -0.088 | [8] -0.038 | [9] -0.101

ADPRH (UniProt P54922)
inactive: erlotinib -0.021 | [2] -0.047 | [3] -0.047 | [5] 0.008 | [6] -0.011 | [8] 0.141 | [9] -0.065

ALG8 (UniProt Q9BVK2)
inactive: erlotinib -0.019 | [1] 0.067 | [2] -0.006 | [3] 0.043 | [4] 0.104 | [5] 0.025 | [6] 0.144 | [7] 0.024 | [8] 0.027 | [9] 0.017

AFF4 (UniProt Q9UHB7)
inactive: erlotinib -0.124 | [1] 0.213 | [2] -0.158 | [3] 0.078 | [4] -0.037 | [5] -0.028 | [7] -0.028

AKR1B1 (UniProt P15121)
inactive: erlotinib 0.075 | [1] 0.006 | [2] 0.062 | [3] 0.022 | [4] 0.016 | [5] 0.022 | [6] -0.01 | [7] -0.057 | [8] -0.016 | [9] 0.044

ALAS1 (UniProt P13196)
inactive: erlotinib -0.107 | [1] -0.211 | [2] 0.072 | [3] -0.024 | [4] 0.334 | [5] -0.029 | [7] 0.382

ALG12 (UniProt Q9BV10)
inactive: erlotinib -0.071 | [1] -0.051 | [2] 0.04 | [3] 0.018 | [4] -0.018 | [5] 0.128 | [7] 0.1 | [8] 0 | [9] 0.127

ADPRM (UniProt Q3LIE5)
inactive: erlotinib -0.015 | [3] 0.011 | [5] 0.054

ANAPC15 isoform 2 (UniProt P60006)
inactive: erlotinib -0.229 | [1] -0.117 | [3] -0.174 | [4] 0.002 | [7] 0.006 | [8] 0.045 | [9] 0.044

ADIPOR1 (UniProt Q96A54)
inactive: erlotinib 0.093 | [2] -0.086 | [3] -0.1 | [5] 0.051 | [6] 0.081

AMBP (UniProt P02760)
inactive: erlotinib -0.23 | [3] -0.047 | [5] -0.053

AKT1 (UniProt P31749)
inactive: erlotinib 0.095 | [1] 0.034 | [2] 0.101 | [3] -0.067 | [4] 0 | [5] 0.184 | [6] 0.117 | [7] 0.059 | [8] -0.026 | [9] 0.164

AEBP2 (UniProt Q6ZN18)
inactive: erlotinib 0.305 | [2] 0.072 | [3] -0.322 | [5] 0.092
